PubChem BioAssay AID504786 – Drosophila RNAi Screening Center | 2011
In all, the deposit lists about 21,000 reagents; this is a random part of those that have a named target and a result. 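Primary screen; positive scores mean lost reporter signal, so the sign may be inverted from the usual convention.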 Reagents against one gene are numbered here. Names joined by + are all predicted targets of the reagent.

Assay: 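Knock-downs reducing HIF reporter induction by the iron chelator DFO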 (primary screen)
System: Drosophila S2 cells with a stable HIF luciferase reporter
Reagents: long dsRNA against Drosophila genes, about 0.2 µg dsRNA per well of a 384-well plate
Duration: three days of knock-down, then 20 h of DFO before reading
Treatment: desferrioxamine (DFO) at 100 µM, an iron chelator that mimics hypoxia, for 20 h
Read-out: 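HIF reporter luminescence in cells given 100 µM DFO for 20 h, using the mouse ldh-a hypoxia-response element, scored as per-plate z-scores; higher means greater loss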
Direction: z-score: higher = stronger loss of HIF reporter signal

Target gene	reagent	z-score, replicate 1	z-score, replicate 2	z-score, replicate 3	z-score, replicate 4
fwd	1	-0.2	0.1		
CG10749	1	-0.3	-0.7		
Lam	1	0.2	0.6		
gek	1	-0.2	-0.1		
CG31952	1	-0.4	-0.3		
IntS3	1	0.3	0.5		
RpL36	1	5.8	5.2		
Art6	1	-0.4	-0.3		
pum	1	-0.4	-0.2		
pum	2	0.2	0.2		
pum	3	0.8	0.7	-0.9	-0.1
pum	4	-0.4	0		
Ero1L	1	-0.2	-0.6		
Graf	1	-0.3	-0.1		
alpha-Est4	1	-0.4	-0.1		
CG13836 (retired record)	1	-0.1	-0.4		
DppIII	1	-0.2	0.1		
CG7384	1	-0.3	-0.2		
Marf1	1	-0.2	-0.2		
Marf1	2	-0.2	-0.1		
Sema5c	1	-0.2	-0.4		

Part of the list above in another layout.
| Target gene | reagent | z-score, replicate 1 | z-score, replicate 2 | z-score, replicate 3 | z-score, replicate 4 |
| --- | --- | --- | --- | --- | --- |
| pum | 2 | 0.2 | 0.2 | – | – |
| pum | 3 | 0.8 | 0.7 | -0.9 | -0.1 |
| pum | 4 | -0.4 | 0 | – | – |
| Ero1L | 1 | -0.2 | -0.6 | – | – |
| Graf | 1 | -0.3 | -0.1 | – | – |
| alpha-Est4 | 1 | -0.4 | -0.1 | – | – |
| CG13836 (retired record) | 1 | -0.1 | -0.4 | – | – |

The listing continues.
Target gene	reagent	z-score, replicate 1	z-score, replicate 2	z-score, replicate 3	z-score, replicate 4
Dr	1	-0.4	-0.5	-0.2	-0.1
CG30089	1	-0.3	-0.4		
CG30089	2	6.3	4.7		
CG30089	3	-0.2	-0.3		
CG30089	4	-1.1	0.2		
CG31999	1	-0.3	-0.8		
CG31999	2	-0.3	-0.4		
Adk3	1	-0.3	-0.3		
deltaCOP	1	-0.3	0.7		
gskt	1	-0.4	-0.5		
heca	1	-0.4	-1		
CG11456	1	-0.3	-0.3		
CG15549	1	-0.2	-0.6		
CG5087	1	-0.1	0		
Nepl20	1	-0.3	-0.6		
VhaSFD	1	-0.3	-0.2		
CG5966	1	-0.3	0.6		
Sps2	1	-0.2	-0.2		
CG15880	1	-0.2	-0.6		
Dgk	1	0	-0.1		
Dgk	2	0	-0.1		
Dgk	3	-0.2	-0.1		
Dgk	4	0	-0.1	-0.5	-0.3
bbx + waw	1	-0.5	-0.6		
bbx + waw	2	-0.1	0.5		
Lcp65Aa	1	-0.4	-0.8		
scf	1	-0.2	-0.2		
Zn72D	1	-0.2	-0.4		
CG11251	1	-0.2	-0.2		
gsb-n	1	0.1	-0.1		
gsb-n	2	0.1	-0.2		
wgn	1	0.3	0.1		
Oga	1	-0.1	-0.5		
Muc68Ca	1	-0.4	-0.1		
Muc68Ca	2	-0.1	-0.2		
